Results reported in paper PMC7309601, “Efficacy of THN201, a Combination of Donepezil and Mefloquine, to Reverse Neurocognitive Deficits in Alzheimer’s Disease” (Frontiers in Neuroscience, 2020).

How the values were obtained:
[1] = tested on: Aβ25–35 peptide-injected mice; assay: Novel object recognition (NOR) task in Aβ25–35-injected mice; assay type: in vivo; details: DPZ 0.25 mg/kg p.o. daily from day 1; Aβ25–35 i.c.v.
Method: Both novel object recognition (NOR) and novel object location (NOL) tests were carried out in an open-field arena during three phases ([Leger et al., 2013]; [Vogel-Ciernia and Wood, 2014]; [Lueptow, 2017]). (i) For the habituation phase on the first day, mice were allowed to freely explore the empty apparatus. (ii) On the second day, two identical objects were placed at two opposite edges of the arena. Time spent by the mouse exploring the two objects was recorded. (iii) Twenty-four hours later, one of the two familiar objects was replaced by a novel one (NOR) or displaced (NOL). Mice were allowed to explore the whole arena during 10 min for each of the three phases. The preference index was calculated as the ratio of the duration of contacts with the novel/displaced object over the total duration of contacts with the two objects. Locomotion was recorded using EthoVision software (Noldus, Paris, France).

[2] = Pharmacokinetics of DPZ and MEF in serum and brain; details: rat, in vivo
Method: Drugs were administered p.o., once per day for 14 days.
Blood was collected on the 14th treatment day, just prior to drug administration (T0) and then 30 min, 1, 2, 4, 8, and 24 h later. Blood was collected by retro-orbital puncture except for the last collection, which was made by intracardiac puncture. After coagulation, blood samples were centrifuged at 3,000 × g for 15 min, and serum was collected and stored at −80°C. Rats were sacrificed by decapitation immediately after the last blood collection, and their brains including brainstem and cerebellum were removed as one piece, placed on tinfoil precooled on dry ice and stored at −80°C until drug quantifications.
One volume of brain or serum samples was added to three volumes of human serum EDTA K3, and the mixture was homogenized under magnetic stirring for 15 min for analysis using a Sciex API4000 Qtrap mass spectrometer coupled to a Shimadzu HPLC system (Shimadzu Corporation, Marne-la-Vallée, France).
(A,C) Blood samples were collected before treatment (T0) and then at 0.5, 1, 2, 4, 8, and 24 h after the last administration on day 14. (B,D) Brain samples were collected on day 15, 24 h after the last drug administration. […] No statistical analysis applicable (C,D). Bars in black indicate combination treatments.

Q: For `COc1cc2c(cc1OC)C(=O)C(CC1CCN(Cc3ccccc3)CC1)C2` (stereo not drawn) [DPZ, Donepezil], which “NOR test phase: effect on Aβ-induced impairment (preference index)” value [1] is on record?
A: The value was “did not reverse the Aβ-induced impairment”.

Q: What about the concentration at 24 h ([2]; 0.25 mg/kg) of the same molecule?
A: The concentration at 24 h was 13 ± 2.17 ng/g.

Q: What about the concentration at 24 h ([2]; 1 mg/kg) of the same molecule?
A: The concentration at 24 h was 78.1 ± 11.5 ng/g.
